Laboratory results as given in patent US20240368264A1.
Results are given in words; binding and its absence hold for the method and conditions named. Some binding calls cover weakened binding; strength is not graded here. Values belong to the binder of their own block, whether it stands above or below them.

Protein sequences, listed by entry. Tags and fused reporters are not part of them. Residues count along the entry.
UniProt Q969D9, residues 29-159: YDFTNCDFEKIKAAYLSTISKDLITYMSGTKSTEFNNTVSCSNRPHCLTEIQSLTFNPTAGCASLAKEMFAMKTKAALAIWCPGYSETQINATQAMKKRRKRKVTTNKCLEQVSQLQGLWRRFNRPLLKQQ

Target: TSLP-Biotin protein (UniProt Q969D9)
Assay: flow cytometry blocking assay: antibody diluted 2-fold from 20 ug/mL with TSLP-Biotin on HEK293F/TSLPR transient cells, SA-PE, MFI; blocked partner: TSLPR on the cells

binding: binds
B1: Nb10-63 (VHH)
VHH: QVQLQESGGGSVQAGGSLRLSCTASGFTLDDSDMGWYRQAPGDECELVSTISSLGGTYYADSVKGRFTISHDNAKNTVYLQMNSLKPHDTAVYYCAPGTDRYSDCPNEYSVWGQGTQVTVSS

binding: binds
B2: Nb7-54 (VHH)
VHH: QVQLQESGGGSVQAGETLRLSCTASGFTFDDSDMGWYRQAPGNECELVSIISSDGMTYYADSVKGRFTISQDNAKNTVYLQMNSLKPEDTAVYYCAATKYSSDYDVAEDWRRGVCGDMDYWGKGTQVTVSS

binding: binds
B3: Nb5-31 (VHH)
VHH: QVQLQESGGGSVQAGGSLRLSCTASGFTSGGSDMGWYRQAPGNECDLVSYISSDGSTYYADSVKGRFTISQDNAKNTVYLQMNSLKPEDTAVYYCAATDYGLGPPPSSTGQCYGMDYWGKGTQVTVSS
